# Experimental data reported in article doi:10.1101/2020.05.12.090571.
# Protein sequences, listed by entry. Tags and fused reporters are not part of them. Residues count along the entry.
# UniProt P30530, residues 26-894: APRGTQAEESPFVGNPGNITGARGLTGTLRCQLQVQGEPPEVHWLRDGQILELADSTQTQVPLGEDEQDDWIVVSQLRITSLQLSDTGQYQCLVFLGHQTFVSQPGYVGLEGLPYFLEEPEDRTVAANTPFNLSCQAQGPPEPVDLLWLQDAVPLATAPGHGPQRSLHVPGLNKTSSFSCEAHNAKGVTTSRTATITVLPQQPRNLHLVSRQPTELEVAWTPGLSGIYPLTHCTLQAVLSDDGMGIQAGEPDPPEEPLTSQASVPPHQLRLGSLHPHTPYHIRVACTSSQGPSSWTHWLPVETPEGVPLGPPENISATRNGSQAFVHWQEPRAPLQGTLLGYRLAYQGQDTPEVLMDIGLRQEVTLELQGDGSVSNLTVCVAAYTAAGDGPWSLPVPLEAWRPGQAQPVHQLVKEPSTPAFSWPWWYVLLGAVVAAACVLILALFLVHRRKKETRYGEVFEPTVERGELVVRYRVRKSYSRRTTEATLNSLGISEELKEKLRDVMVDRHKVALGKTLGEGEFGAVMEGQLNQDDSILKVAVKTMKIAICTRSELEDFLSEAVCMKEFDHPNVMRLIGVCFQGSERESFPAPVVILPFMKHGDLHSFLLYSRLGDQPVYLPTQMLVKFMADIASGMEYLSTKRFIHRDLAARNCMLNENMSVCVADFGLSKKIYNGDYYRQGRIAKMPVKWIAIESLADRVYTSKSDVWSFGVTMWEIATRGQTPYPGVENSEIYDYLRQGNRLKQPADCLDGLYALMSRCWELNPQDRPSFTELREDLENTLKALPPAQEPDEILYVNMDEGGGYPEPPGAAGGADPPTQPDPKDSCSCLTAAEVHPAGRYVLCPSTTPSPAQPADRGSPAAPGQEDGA
# These are yes or no findings as the source states them, for the method shown. In cells and extracts the contact can be indirect. Some binding calls cover weakened binding; strength is not graded here. Tags and fused reporters may be left off the sequences shown.
# B1: flotillin 1-HA (protein, UniProt O75955 1-427)
# chain: MFFTCGPNEAMVVSGFCRSPPVMVAGGRVFVLPCIQQIQRISLNTLTLNVKSEKVYTRHGVPISVTGIAQVKIQGQNKEMLAAACQMFLGKTEAEIAHIALETLEGHQRAIMAHMTVEEIYKDRQKFSEQVFKVASSDLVNMGISVVSYTLKDIHDDQDYLHSLGKARTAQVQKDARIGEAEAKRDAGIREAKAKQEKVSAQYLSEIEMAKAQRDYELKKAAYDIEVNTRRAQADLAYQLQVAKTKQQIEEQRVQVQVVERAQQVAVQEQEIARREKELEARVRKPAEAERYKLERLAEAEKSQLIMQAEAEAASVRMRGEAEAFAIGARARAEAEQMAKKAEAFQLYQEAAQLDMLLEKLPQVAEEISGPLTSANKITLVSSGSGTMGAAKVTGEVLDILTRLPESVERLTGVSISQVNHKPLRTA
# B2: flotillin 1 (endogenous) (protein, UniProt O75955 1-427)
# chain: MFFTCGPNEAMVVSGFCRSPPVMVAGGRVFVLPCIQQIQRISLNTLTLNVKSEKVYTRHGVPISVTGIAQVKIQGQNKEMLAAACQMFLGKTEAEIAHIALETLEGHQRAIMAHMTVEEIYKDRQKFSEQVFKVASSDLVNMGISVVSYTLKDIHDDQDYLHSLGKARTAQVQKDARIGEAEAKRDAGIREAKAKQEKVSAQYLSEIEMAKAQRDYELKKAAYDIEVNTRRAQADLAYQLQVAKTKQQIEEQRVQVQVVERAQQVAVQEQEIARREKELEARVRKPAEAERYKLERLAEAEKSQLIMQAEAEAASVRMRGEAEAFAIGARARAEAEQMAKKAEAFQLYQEAAQLDMLLEKLPQVAEEISGPLTSANKITLVSSGSGTMGAAKVTGEVLDILTRLPESVERLTGVSISQVNHKPLRTA
# Tests used:
# Assay in all cases: co-IP
# [1] = target: K-Ras4A-GFP (UniProt P01116)
# [2] = target: K-Ras4B-GFP (UniProt P01116)
# [3] = target: AXL (human (endogenous in MCF10A)) (UniProt P30530)
Binder,binding [1],binding [2],binding [3]
B1,no binding,binds,binds
B2,no binding,binds,–
